Reference: PubChem BioAssay AID504771 (Drosophila RNAi Screening Center, 2011)
Only reagents picked out of a larger screen are listed. 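All genes were primary candidates; inactive means validation failed, not no effect; aggregate scores behind calls are not deposited.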 Names joined by + are all predicted targets of the reagent. Reagent sequences are not shown.

- Screen: 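Fly cell regulators of aggregate formation by polyglutamine huntingtin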 (follow-up of hits)
- Cell system: Drosophila S2 cells with copper-inducible mutant huntingtin exon 1 (46 glutamines)-eGFP
- Knock-down reagent: long dsRNA against Drosophila genes, 250 ng dsRNA per well
- Duration: 3 days of knock-down, then 2 days of copper induction before fixing
- Challenge: copper sulfate at 400 µM to switch on Htt-Q46-eGFP expression
- Read-out: 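Automated image analysis of GFP-tagged aggregates per well: number, size and intensity against plate mean and SD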
- Call rule: 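Primary hit when aggregate count, size or brightness differed from plate mean by over 2 SD; called active only after clearing every validation step (off-target, repeat, second dsRNA, promoter counter-screen)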
- Calls: active = confirmed modifier; inactive = primary candidate not confirmed

The opening 11 entries, to show the layout:
no.	Target gene	dsRNA	aggregation phenotype	activity call
1	hay	DRSC11354	knock-down lowers aggregates	inactive
2	mRpL9	DRSC15678	knock-down lowers aggregates	inactive
3	RpS13	DRSC03419	knock-down lowers aggregates	inactive
4	Slu7	DRSC14729	knock-down lowers aggregates	active
5	lqfR	DRSC14704	knock-down raises aggregates	inactive
6	CG8435	DRSC07179	knock-down lowers aggregates	inactive
7	FLASH	DRSC06872	knock-down raises aggregates	inactive
8	Polr2F	DRSC12366	knock-down lowers aggregates	inactive
9	Pi3K68D	DRSC11253		active
10	Mfap1	DRSC08154	knock-down lowers aggregates	inactive
11	M1BP	DRSC16566	knock-down lowers aggregates	inactive

The list itself, from the start:
no.	Target gene	dsRNA	aggregation phenotype	activity call
1	hay	DRSC11354	knock-down lowers aggregates	inactive
2	mRpL9	DRSC15678	knock-down lowers aggregates	inactive
3	RpS13	DRSC03419	knock-down lowers aggregates	inactive
4	Slu7	DRSC14729	knock-down lowers aggregates	active
5	lqfR	DRSC14704	knock-down raises aggregates	inactive
6	CG8435	DRSC07179	knock-down lowers aggregates	inactive
7	FLASH	DRSC06872	knock-down raises aggregates	inactive
8	Polr2F	DRSC12366	knock-down lowers aggregates	inactive
9	Pi3K68D	DRSC11253		active
10	Mfap1	DRSC08154	knock-down lowers aggregates	inactive
11	M1BP	DRSC16566	knock-down lowers aggregates	inactive
12	RpL18	DRSC11016	knock-down lowers aggregates	inactive
13	RpL18	DRSC22323	knock-down lowers aggregates	inactive
14	CG11583	DRSC08202	knock-down lowers aggregates	active
15	Cyt-c1	DRSC10447	knock-down lowers aggregates	inactive
16	Uev1A	DRSC09763	knock-down raises aggregates	inactive
17	Jra	DRSC07447	knock-down raises aggregates	active
18	Cdk9	DRSC04601	knock-down lowers aggregates	inactive
19	Ssrp	DRSC04658	knock-down raises aggregates	active
20	mRpL13	DRSC02076	knock-down lowers aggregates	inactive
21	eIF2beta	DRSC11341	knock-down lowers aggregates	inactive
22	zetaCOP	DRSC11412	knock-down lowers aggregates	inactive
23	Rpt2	DRSC16799	knock-down lowers aggregates	inactive
24	TSG101	DRSC11098	knock-down lowers aggregates	active
25	CG18810	DRSC02701	knock-down lowers aggregates	inactive
26	RpL19	DRSC04649	knock-down lowers aggregates	inactive
27	Hsp110	DRSC11186	knock-down raises aggregates	active
28	eIF3d1	DRSC16938	knock-down lowers aggregates	inactive
29	Polr2A	DRSC20280	knock-down lowers aggregates	inactive
30	Ddx56	DRSC20567	knock-down lowers aggregates	inactive
31	Arf4	DRSC17195	knock-down lowers aggregates	active
32	Mes2	DRSC11593	knock-down lowers aggregates	inactive
33	spag	DRSC04717	knock-down raises aggregates	active
34	CG6891	DRSC20016	knock-down raises aggregates	inactive
35	Sec61alpha	DRSC03256	knock-down lowers aggregates	active
36	Tango4	DRSC19786	knock-down lowers aggregates	active
37	mRpS6	DRSC08470	knock-down lowers aggregates	inactive
38	U2af50	DRSC20297	knock-down lowers aggregates	inactive
39	U2af50	DRSC22867	knock-down lowers aggregates	inactive
40	Taf5	DRSC07562	knock-down raises aggregates	inactive
41	Cka	DRSC22858	knock-down lowers aggregates	active
42	RpL35	DRSC18347	knock-down lowers aggregates	inactive
43	E2f1	DRSC16655	knock-down raises aggregates	inactive
44	HDAC1	DRSC08696	knock-down raises aggregates	active
45	Stip1	DRSC00756	knock-down raises aggregates	active
46	RpL35A	DRSC12302	knock-down lowers aggregates	inactive
47	Uba1	DRSC07567	knock-down raises aggregates	active
48	Prosalpha5	DRSC07514	knock-down lowers aggregates	active
49	Spt6	DRSC18836	knock-down lowers aggregates	inactive
50	Polr2K	DRSC05535	knock-down lowers aggregates	inactive
51	CG13243	DRSC01920	knock-down lowers aggregates	inactive
52	Cbp80	DRSC18450	knock-down lowers aggregates	inactive
53	RpL13	DRSC03416	knock-down lowers aggregates	inactive
54	CG5359	DRSC15780	knock-down raises aggregates	inactive
55	Sf3b2	DRSC00619	knock-down lowers aggregates	active
56	omd	DRSC16507	knock-down raises aggregates	active
57	CG18273	DRSC18505	knock-down lowers aggregates	inactive
58	CG6094	DRSC22705	knock-down lowers aggregates	inactive
59	eIF3g1	DRSC18427	knock-down lowers aggregates	inactive
60	Hel25E	DRSC03342	knock-down lowers aggregates	active
61	CG15080	DRSC06511	knock-down lowers aggregates	inactive
62	Prosalpha2	DRSC16798	knock-down lowers aggregates	inactive
63	Taf4	DRSC11297	knock-down raises aggregates	active
64	Cap-G	DRSC21805	knock-down lowers aggregates	inactive
65	RpL17	DRSC18293	knock-down lowers aggregates	inactive
66	vers	DRSC10715	knock-down raises aggregates	inactive
67	vers	DRSC23232	knock-down raises aggregates	inactive
68	CG7483	DRSC22432	knock-down lowers aggregates	inactive
69	Rpn6	DRSC07541	knock-down lowers aggregates	inactive
70	APC4	DRSC18360	knock-down lowers aggregates	inactive
71	14-3-3epsilon	DRSC16370	knock-down lowers aggregates	active
72	NdufA3	DRSC18431	knock-down raises aggregates	inactive
73	mRpL45	DRSC16146	knock-down lowers aggregates	inactive
74	CG34386	DRSC06467	knock-down raises aggregates	inactive
75	RpL27	DRSC15638	knock-down lowers aggregates	inactive
76	RpS19a	DRSC20281	knock-down lowers aggregates	inactive
77	CG1677	DRSC18116	knock-down lowers aggregates	inactive
78	Nop56	DRSC14699	knock-down lowers aggregates	inactive
79	Klp67A	DRSC11205	knock-down lowers aggregates	inactive
80	eIF3f1	DRSC12328	knock-down lowers aggregates	inactive
81	larp	DRSC14728	knock-down raises aggregates	inactive
82	larp	DRSC16984	knock-down raises aggregates	inactive
83	C15	DRSC14169	knock-down raises aggregates	inactive
84	CG13185	DRSC06310	knock-down lowers aggregates	inactive
85	pea	DRSC07120	knock-down lowers aggregates	active
86	Rcc1	DRSC09684	knock-down lowers aggregates	inactive
87	Gapdh2	DRSC20246	knock-down lowers aggregates	inactive
88	bin3	DRSC04919	knock-down raises aggregates	active
89	RpS24	DRSC04414	knock-down lowers aggregates	inactive
90	Aos1	DRSC14113	knock-down lowers aggregates	active
91	Ski6	DRSC02491	knock-down lowers aggregates	inactive
92	CG16903	DRSC18561	knock-down lowers aggregates	inactive
93	Tpr2	DRSC03461		inactive
94	CCT1	DRSC16877	knock-down lowers aggregates	active
95	Vha44	DRSC07572	knock-down raises aggregates	inactive
96	Tsen34	DRSC22932	knock-down raises aggregates	inactive
97	Rab1	DRSC16808	knock-down lowers aggregates	active
98	RpL7-like + CG34164	DRSC02836	knock-down lowers aggregates	inactive
99	CG9667	DRSC16535	knock-down lowers aggregates	active
100	brm	DRSC11330	knock-down lowers aggregates	active
101	Polr2H	DRSC11642	knock-down lowers aggregates	inactive
102	ZnT63C	DRSC21989	knock-down lowers aggregates	inactive
103	CG17168	DRSC20904	knock-down lowers aggregates	inactive
